Experimental data published in patent publication US9062024B2, “Nitrogen-containing heterocyclic compound and salt thereof, and a fungicide for agricultural and horticultural use” (Nippon Soda Co., Ltd., priority 2009, dated 2015).
Some results were stated once for a whole list of compounds, not compound by compound.

Experiments:
[1] = tested on: apple scab pathogen (Venturia inaequalis); assay: Apple scab control test; type: in vivo; conditions: emulsion sprayed at active ingredient concentration of 100 ppm onto apple seedlings; inoculated with conidiospores, held 2 weeks at 20° C.; lesions compared with untreated seedlings
[2] = tested on: cucumber gray mold pathogen (Botrytis cinerea); assay: Cucumber gray mold control test; type: in vivo; conditions: emulsion sprayed at active ingredient concentration of 100 ppm onto cucumber seedlings; drip-inoculated with conidiospore suspension, held 4 days in the dark at 20° C.; lesions compared with untreated seedlings

Row | Structure (SMILES) | control values [1] | control values [2]
1 | Cc1cc(C2=NCC(C)(C)Cc3c(F)cccc32)cnc1C [Compound A1-54] | ≥ 75% | ≥ 75%
2 | CC1(C)CN=C(c2cnc3ccccc3c2)c2ccccc2N1 [Compound B1-6] | – | ≥ 75%
3 | CC1(C)CN=C(c2cnc3ccccc3c2)c2cccc(Cl)c2N1 [Compound B1-21] | ≥ 75% | ≥ 75%
4 | CC1(C)CN=C(c2cnc3ccccc3c2)c2cccc(F)c2N1 [Compound B1-22] | ≥ 75% | ≥ 75%
5 | CC1(C)CN=C(c2cnc3c(F)cccc3c2)c2cccc(F)c2N1 [Compound B1-28] | ≥ 75% | ≥ 75%
6 | CN1CCN=C(c2cnc3ccccc3c2)c2cccc(Cl)c21 [Compound B1-35] | ≥ 75% | –
7 | CC1(C)CNc2c(Cl)cccc2C(c2cnc3ccccc3c2)=N1 [Compound B1-36] | – | ≥ 75%
8 | CC(C)N1CCN=C(c2cnc3ccccc3c2)c2ccccc21 [Compound B1-37, 2,3-Dihydro-1-isopropyl-5-(3-quinolinyl)-1H-1,4-benzodiazepine] | – | ≥ 75%
9 | Clc1cccc2c1NCCN=C2c1cnc2ccccc2c1 [Compound B1-38] | – | ≥ 75%
10 | CN1c2ccccc2C(c2cnc3ccccc3c2)=NCC1(C)C [Compound B1-42] | – | ≥ 75%
11 | CN1c2c(F)cccc2C(c2cnc3ccccc3c2)=NCC1(C)C [Compound B1-43] | ≥ 75% | ≥ 75%
12 | CN1c2c(Cl)cccc2C(c2cnc3ccccc3c2)=NCC1(C)C [Compound B1-44] | ≥ 75% | ≥ 75%
13 | C=CCN1c2c(Cl)cccc2C(c2cnc3ccccc3c2)=NCC1(C)C [Compound B1-45] | – | ≥ 75%
14 | CC1(C)CN=C(c2cnc3ccccc3c2)c2cccc(Cl)c2N1Cc1ccccc1 [Compound B1-46] | – | ≥ 75%
15 | CN1c2c(F)cccc2C(c2cnc3c(F)cccc3c2)=NCC1(C)C [Compound B1-47] | ≥ 75% | ≥ 75%
16 | CC1(C)CNc2c(F)cccc2C(c2cnc3c(F)cccc3c2)=N1 [Compound B1-48] | – | ≥ 75%
17 | C=CCN1c2c(F)cccc2C(c2cnc3c(F)cccc3c2)=NCC1(C)C [Compound B1-49] | – | ≥ 75%
18 | CN1CC(C)(C)N=C(c2cnc3c(F)cccc3c2)c2cccc(F)c21 [Compound B1-50] | ≥ 75% | ≥ 75%
19 | c1ccc2c(c1)CCCN=C2c1cnc2ccccc2c1 [Compound B2-1] | ≥ 75% | ≥ 75%
